Experimental data taken from publication PMC6030205.
These are yes or no findings as the source states them, for the method shown. In cells and extracts the contact can be indirect. Some binding calls cover weakened binding; strength is not graded here.

Protein sequences, listed by entry. Tags and fused reporters are not part of them.
UniProt P92978: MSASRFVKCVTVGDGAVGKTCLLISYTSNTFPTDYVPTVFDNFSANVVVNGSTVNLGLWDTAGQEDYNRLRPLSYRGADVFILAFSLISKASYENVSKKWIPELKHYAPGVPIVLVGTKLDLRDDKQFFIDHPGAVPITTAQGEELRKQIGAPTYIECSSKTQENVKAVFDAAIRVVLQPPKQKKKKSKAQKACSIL

Biological target: GFP-ROP1 (Arabidopsis) (UniProt P92978)
Assay: co-IP; total protein of Arabidopsis pollen tubes in NEB buffer (20 mM HEPES pH 7.5, 40 mM KCl, 1 mM EDTA, 1% Triton X-100); GFP-trap or RFP-trap agarose beads, 3 h at 4 C; endogenous REN4 detected by anti-REN4 immunoblot

- binding: binds
B1: REN4 (ROP1 enhancer 4), endogenous (protein, UniProt O48716 1-465)
chain: MFTEADSIPRAKYANMMHSDPNLSSTMTQQTEEEYGIRNSSASAVGTGMYDRMSCEGSPMMMSPWNQATPFTQTQWSTVEENLPQNGLIGSLVREEGHIYSLAATKDLLYTGSDSKNIRVWKNLKEFSAFKCNSGLVKAIVISGEKIFTGHQDGKIRVWKVSPKNQSLHKRSGTLPTLKDIFKASLKPRNYVEVKKHRTALWIKHADAVSCLSLNDEQGLLYSASWDRTIKVWRIADSKCLESIPAHDDAVNSVVSTTEAIVFSGSADGTVKAWKRDQQGKYTKHTLMQTLTKQESAVTALAVSKNGAAVYFGSSDGLVNFWEREKQLNYGGILKGHKLAVLCLEVAGSLVFSGSADKTICVWKRDGNIHTCLSVLTGHTGPVKCLAVEADREASERRDKKWIVYSGSLDKSVKVWGVSESFIDMNQMSMMQQQQQQHVISHSEPFMSDGSFSSSAGGASSHRRH
